# These are yes or no findings as the source states them, for the method shown. In cells and extracts the contact can be indirect. Some entries that bind do so weakly or less than the wild type.
# Amino acid sequences for entries named in this document (tags omitted).
# UniProt P83916: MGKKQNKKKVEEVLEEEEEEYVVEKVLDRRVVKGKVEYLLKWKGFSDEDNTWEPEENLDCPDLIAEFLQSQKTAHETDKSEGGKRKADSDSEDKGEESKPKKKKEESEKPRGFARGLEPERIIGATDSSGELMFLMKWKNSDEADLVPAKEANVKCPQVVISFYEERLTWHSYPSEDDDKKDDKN
# UniProt P38919: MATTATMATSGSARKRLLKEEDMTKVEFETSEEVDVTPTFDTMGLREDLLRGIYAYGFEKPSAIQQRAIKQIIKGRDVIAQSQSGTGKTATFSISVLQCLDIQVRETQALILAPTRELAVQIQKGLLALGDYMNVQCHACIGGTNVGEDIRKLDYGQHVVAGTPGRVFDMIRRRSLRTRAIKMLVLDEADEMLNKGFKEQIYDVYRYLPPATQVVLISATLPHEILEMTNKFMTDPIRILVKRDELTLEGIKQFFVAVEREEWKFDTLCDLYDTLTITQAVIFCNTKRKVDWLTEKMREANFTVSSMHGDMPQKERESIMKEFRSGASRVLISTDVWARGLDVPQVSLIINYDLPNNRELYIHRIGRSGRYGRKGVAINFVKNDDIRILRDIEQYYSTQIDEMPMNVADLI
# Assays:
# [1] = target: endogenous CBX1 (human (endogenous in HEK293T)) (UniProt P83916); assay: co-IP; CBX1 antibody cross-linked (BS3) to Protein A Dynabeads, 4 mg nuclear extracts of HEK293T cells expressing control vector, G9a or KDM4A, overnight at 4 °C; Western blot for eIF4A3, Kme3 and CBX1
# [2] = target: endogenous CBX1 (human (endogenous in HEK293T)) (UniProt P83916); assay: co-IP; immunoprecipitation with the CBX1 antibody from HEK293T cells transfected with control vector, G9a or KDM4A; immunoblot for eIF4A3
# [3] = target: recombinantly expressed CBX1 (6xHis in N-terminus) (UniProt P83916); assay: pull-down; nuclear extracts from HEK293T cells expressing control vector, G9a or KDM4A supplemented with recombinant 6xHis-CBX1; Ni-NTA-coated magnetic beads; immunoblot; only the target purified
binding [1],binding [2],binding [3],Substance
binds,–,–,endogenous eIF4A3 (from UniProt P38919 1-411)
–,binds,binds,eukaryotic translational initiation factor 4A3 (from UniProt P38919 1-411)
